Among all 52,000 sequences or so, about 210 (0.4%) were called active.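 How the source made its calls: active means gene whose silencing raises cell survival under the drug, median off-target-corrected z-score across its silencing RNAs 2 or more; inactive means the rest.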 This is one part of the list.
Assay: Resistance to Poly (ADP-Ribose) Polymerase inhibitor: Gene Identification via Genome-wide siRNA Screen
Settings: mouse BRCA2 R2336H ES cells, olaparib, CellTiter-Glo viability; hits give high values
Method in brief: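 Genome-wide siRNA screen (3 siRNAs/gene, 20 nM) in mouse ES cells carrying hypomorphic BRCA2 R2336H; olaparib 500 nM added 48 h post-transfection, CellTiter-Glo viability 72 h later. Normalized to plate-median negative control; MAD z-scores, gene median, seed-adjusted.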

Row | Sequence | z-score
1 | GGAAAAGACAAGAAAAGAUTT against 2610312B22Rik | inactive: 3.1
2 | GGACUACGAAGAAAUCACUTT against Aicda | inactive: 0.289
3 | AAUUGAAGACUGUAAAUACTT against Sst | inactive: -0.109
4 | GCCACUUGUGCUAAGCUGUTT against Ager | inactive: 0.539
5 | GGAAAGAAGAAGAAAUGACTT against Srp19 | inactive: 0.284
6 | GGUUUCAAGCUCUAAAGCUTT against Ccr1 | inactive: 1.47
7 | CCGAUGGCUUCAUGAUUCATT against Gulo | inactive: -0.627
8 | GGACGACUUAAAGCUCUUUTT against Olfr1220 | inactive: -0.73
9 | GGCCAGACCUUUGUGAAUGTT against Ctse | inactive: -1.08
10 | GGAAAAGUACAAAAGUCAGTT against Kcne2 | inactive: 0.973
11 | GGAAUGCAAGGAAAUGAAATT against Obp1a | inactive: -0.237
12 | CCAAACAGUUGGAACUGUGTT against Rusc1 | inactive: 0.437
13 | GCUACAACCUUGAGAAACUTT against 9030623N16Rik | inactive: 1.1
14 | GGAGACGUAUACAAAUGUCTT against Itga11 | inactive: -0.543
15 | GGCUGGACAGGAUUAUCCATT against 2500001K11Rik | inactive: 0.133
16 | GGCCUUUUCUUCUUUUUGUTT against Mill1 | inactive: -0.547
17 | GCAUGAGGCUAAAUUGAAATT against Phldb2 | inactive: -0.153
18 | GCGGCUAAUCGCCAAGAGATT against Arhgap9 | inactive: -1.14
19 | CCUUACUGGGCAACUUGCUTT against Olfr1199 | inactive: 1.81
20 | GGUAUAUGGACUGGUGGAUTT against Hrh2 | inactive: 0.626
21 | GGACAAUCGGAACCUGUUUTT against Cacna2d2 | inactive: -2.21
22 | GCGGUCUGUAUUCUUCUAGTT against Pdia6 | inactive: -0.694
23 | GCUGAAUCUAGCUUCUCAUTT against Mad1l1 | inactive: -0.127

Row | Sequence | z-score
24 | CCAUUAGUCAGAGAAUUGUTT against Tomm20 | inactive: 0.0699
25 | GCCCGGCGAUCUGAAUGUATT against Fchsd2 | inactive: -2.3
26 | GCCUCAGUCCGAUAAAGAGTT against Emcn | inactive: 0.734
27 | GCCAGCUUCCGUGUUUGUUTT against Nfkb1 | inactive: -1.7
28 | GGACCUGAAGAAGCAUGGUTT against Mb | inactive: 3.06
29 | CGAGUUUCAUCGAACGUGUTT against 4732452J19Rik | inactive: 0.0041
30 | GGUGUCUGACUUUAAGAAGTT against BC024806 | inactive: 0.429
31 | GCUACGAACUAAUUGAAAATT against Atp8a1 | inactive: 0.84
32 | GGUACCAUAUCUGUGAACATT against Nrxn3 | inactive: -1.08
33 | GCCCACUUCCGAAUCAAUATT against Mrpl52 | inactive: -0.895
34 | CCUAUGCUAUAGCAGUCUCTT against Oaz1 | inactive: 0.751
35 | GGGCAGGGAUGUUUAGAUCTT against Homer2 | inactive: 0.256
36 | CCAUAUUGGCAAUCUCUAGTT against AY238603 | inactive: 0.966
37 | GGGCAUUUGGCCUUUCUCATT against Cpsf4 | inactive: 0.743
38 | GGCCGGUGCCUUUUAUUCUTT against Spib | inactive: 0.804
39 | GGAUAACCAUUCAGUAUUATT against Polq | inactive: -0.0209
40 | GGAAGAUUUUCUCCAUCUATT against 1700019P01Rik | inactive: 0.578
41 | AUAACCCAGUUCAUCCUCCTT against Olfr1431 | inactive: -0.826
42 | GGAAAAGCAACCAUGUUCUTT against Spon1 | inactive: -0.0441
43 | GGAAACAGGUCUGUCCCAATT against 8430438L13Rik | inactive: -0.879
44 | GGUCACCUUUGCACAGUACTT against A930016P21Rik | inactive: -1.1
45 | GGGUUUAAAAUCUGUAGAUTT against 2700050L05Rik | inactive: 1.08
46 | GCAAGAUCCCGACACAUACTT against Tead4 | inactive: -1.77

Row | Sequence | z-score
47 | GCUCAUCCAGAUAAACCCATT against 1200011M11Rik | inactive: -0.122
48 | GCGGUUGUGGUACUUAAGCTT against Txnl6 | inactive: 0.0668
49 | GGAAGCAGGAUCAGUUCGATT against AI481500 | inactive: -1.9
50 | GGAUGGACCUGACUUUCAATT against Txn2 | inactive: -1.79
51 | GCCUGGAUACAAUUACCCUTT against Mtac2d1 | inactive: 0.591
52 | GGACGUGUGCUCCUUCUUATT against Samhd1 | inactive: -1.78
53 | GGUUGUAGGCCAUAAAGAATT against 2700055A20Rik | inactive: -1.08
54 | GGUACUGUGGUUUAUUCCUTT against 2610510D14Rik | inactive: -0.239
55 | GUUGUAUUUCUUUGUCCUCTT against Olfr1097 | inactive: -0.0942
56 | GCUCUGUGAGCGAAAGUUCTT against Synpo2 | inactive: 1.13
57 | CCCUUUCCUAUGCAUUUGCTT against Olfr851 | inactive: 2.77
58 | CUUGGUGGAUGAAAGAUUCTT against Tdpoz2 | inactive: 0.761
59 | GGAACUGAAGGGCAAUAUCTT against Kifc1 | inactive: -0.241
60 | CCCUGUACACACCUAAAAATT against D10Ertd438e | inactive: 1.39
61 | GGUGCGAAGGAAAUUGCACTT against Mrps26 | inactive: 1.09
62 | GGCUGAUGGAUUCUUAUUGTT against Ostn | inactive: 0.4
63 | GGGAUCAUUAAACUUUUCCTT against Taf11 | inactive: 0.894
64 | GGCAUUGCGUUGGCGAUGUTT against 5330414O08Rik | inactive: -0.309
65 | GGCCUUGAAGAUCAUGAUCTT against Asb2 | inactive: 0.511
66 | CGUGCCUUACAAUUAUUCUTT against Chodl | inactive: -0.303
67 | GCUGCGUGAACUCAACAUCTT against Rps7 | inactive: -3.27

Reformatted: entries from further up

| Row | Sequence | z-score |
| --- | --- | --- |
| 51 | GCCUGGAUACAAUUACCCUTT against Mtac2d1 | inactive: 0.591 |
| 52 | GGACGUGUGCUCCUUCUUATT against Samhd1 | inactive: -1.78 |
| 53 | GGUUGUAGGCCAUAAAGAATT against 2700055A20Rik | inactive: -1.08 |
| 54 | GGUACUGUGGUUUAUUCCUTT against 2610510D14Rik | inactive: -0.239 |
| 55 | GUUGUAUUUCUUUGUCCUCTT against Olfr1097 | inactive: -0.0942 |
